Data source: PubChem BioAssay AID1224829 (NIAID, 2016)
Shown is an unselected part of about 3,800 reagents tested. 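Calls cover raised and lowered translocation; gene median uses one vendor's three siRNAs; qiagen siRNAs acted more weakly than ambion siRNAs.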 Not all columns of the deposit are shown.

Screen: 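Secondary check of hits that alter LPS-induced p65 translocation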 (follow-up of hits)
System: mouse RAW264.7 G9 macrophage reporter cells
Knock-down reagent: single siRNA against mouse genes, 100 nM
Duration: 2 days of siRNA knock-down, then 40 min of LPS before fixing
Treatment: LPS (Salmonella minnesota R595) at 10 ng/ml
Detection: 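Imaging of GFP-p65 after 40 min of LPS; nuclear over perinuclear ring intensity ratio, scaled to plate median and non-targeting control wells, given as z-score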
Direction: p65 translocation z-score: higher = more nuclear NF-kappaB p65 after LPS
Active means: 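Active means the replicate-mean z-score lies beyond plus or minus 2, in either direction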
Calls: active = changed p65 translocation (either direction); inactive = no clear change

Cyth2 (cytohesin 2) [SID315484683], siRNA vendor or control pool ambion single siRNA → p65 translocation z-score, replicate mean: -2.81; Call: active
Cyth2 (cytohesin 2) [SID315484684], siRNA vendor or control pool ambion single siRNA → p65 translocation z-score, replicate mean: -3.78; Call: active
Cyth2 (cytohesin 2) [SID315484685], siRNA vendor or control pool ambion single siRNA → p65 translocation z-score, replicate mean: 0.33; Call: inactive
Cyth2 (cytohesin 2) [SID315484686], siRNA vendor or control pool qiagen single siRNA → p65 translocation z-score, replicate mean: 1.65; Call: inactive
Cyth2 (cytohesin 2) [SID315484687], siRNA vendor or control pool qiagen single siRNA → p65 translocation z-score, replicate mean: 0.613; Call: inactive
Cyth2 (cytohesin 2) [SID315484688], siRNA vendor or control pool qiagen single siRNA → p65 translocation z-score, replicate mean: -2.46; Call: active
Tas2r108 (taste receptor, type 2, member 108) [SID315486039], siRNA vendor or control pool ambion single siRNA → p65 translocation z-score, replicate mean: 1.01; Call: inactive
Tas2r108 (taste receptor, type 2, member 108) [SID315486040], siRNA vendor or control pool ambion single siRNA → p65 translocation z-score, replicate mean: -2.33; Call: active
Tas2r108 (taste receptor, type 2, member 108) [SID315486041], siRNA vendor or control pool ambion single siRNA → p65 translocation z-score, replicate mean: -0.767; Call: inactive
Tas2r108 (taste receptor, type 2, member 108) [SID315486042], siRNA vendor or control pool qiagen single siRNA → p65 translocation z-score, replicate mean: 1.01; Call: inactive
Tas2r108 (taste receptor, type 2, member 108) [SID315486043], siRNA vendor or control pool qiagen single siRNA → p65 translocation z-score, replicate mean: -2.92; Call: active
Tas2r108 (taste receptor, type 2, member 108) [SID315486044], siRNA vendor or control pool qiagen single siRNA → p65 translocation z-score, replicate mean: -2.99; Call: active
Rab32 (RAB32, member RAS oncogene family) [SID315486504], siRNA vendor or control pool ambion single siRNA → p65 translocation z-score, replicate mean: 0.763; Call: inactive
Rab32 (RAB32, member RAS oncogene family) [SID315486505], siRNA vendor or control pool ambion single siRNA → p65 translocation z-score, replicate mean: 0.818; Call: inactive
Rab32 (RAB32, member RAS oncogene family) [SID315486506], siRNA vendor or control pool ambion single siRNA → p65 translocation z-score, replicate mean: -3.51; Call: active
Rab32 (RAB32, member RAS oncogene family) [SID315486507], siRNA vendor or control pool qiagen single siRNA → p65 translocation z-score, replicate mean: 0.877; Call: inactive
Rab32 (RAB32, member RAS oncogene family) [SID315486508], siRNA vendor or control pool qiagen single siRNA → p65 translocation z-score, replicate mean: -1.35; Call: inactive
Rab32 (RAB32, member RAS oncogene family) [SID315486509], siRNA vendor or control pool qiagen single siRNA → p65 translocation z-score, replicate mean: -1.92; Call: inactive

An excerpt from the list above, for reference:
Rab32 (RAB32, member RAS oncogene family) [SID315486507], siRNA vendor or control pool qiagen single siRNA → p65 translocation z-score, replicate mean: 0.877; Call: inactive
Rab32 (RAB32, member RAS oncogene family) [SID315486508], siRNA vendor or control pool qiagen single siRNA → p65 translocation z-score, replicate mean: -1.35; Call: inactive
Rab32 (RAB32, member RAS oncogene family) [SID315486509], siRNA vendor or control pool qiagen single siRNA → p65 translocation z-score, replicate mean: -1.92; Call: inactive

Additional records follow.
Cela2a (chymotrypsin-like elastase family, member 2A) [SID315484092], siRNA vendor or control pool ambion single siRNA → p65 translocation z-score, replicate mean: 1.12; Call: inactive
Cela2a (chymotrypsin-like elastase family, member 2A) [SID315484093], siRNA vendor or control pool ambion single siRNA → p65 translocation z-score, replicate mean: -0.569; Call: inactive
Cela2a (chymotrypsin-like elastase family, member 2A) [SID315484094], siRNA vendor or control pool ambion single siRNA → p65 translocation z-score, replicate mean: 1.14; Call: inactive
Cela2a (chymotrypsin-like elastase family, member 2A) [SID315484095], siRNA vendor or control pool qiagen single siRNA → p65 translocation z-score, replicate mean: 0.852; Call: inactive
Cela2a (chymotrypsin-like elastase family, member 2A) [SID315484096], siRNA vendor or control pool qiagen single siRNA → p65 translocation z-score, replicate mean: 0.79; Call: inactive
Cela2a (chymotrypsin-like elastase family, member 2A) [SID315484097], siRNA vendor or control pool qiagen single siRNA → p65 translocation z-score, replicate mean: -3.21; Call: active
Lrrn4 (leucine rich repeat neuronal 4) [SID315488946], siRNA vendor or control pool ambion single siRNA → p65 translocation z-score, replicate mean: 2.21; Call: active
Lrrn4 (leucine rich repeat neuronal 4) [SID315488947], siRNA vendor or control pool ambion single siRNA → p65 translocation z-score, replicate mean: -1.78; Call: inactive
Lrrn4 (leucine rich repeat neuronal 4) [SID315488948], siRNA vendor or control pool ambion single siRNA → p65 translocation z-score, replicate mean: -1.2; Call: inactive
Lrrn4 (leucine rich repeat neuronal 4) [SID315488949], siRNA vendor or control pool qiagen single siRNA → p65 translocation z-score, replicate mean: 1.86; Call: inactive
Lrrn4 (leucine rich repeat neuronal 4) [SID315488950], siRNA vendor or control pool qiagen single siRNA → p65 translocation z-score, replicate mean: 1.39; Call: inactive
Lrrn4 (leucine rich repeat neuronal 4) [SID315488951], siRNA vendor or control pool qiagen single siRNA → p65 translocation z-score, replicate mean: 0.372; Call: inactive
